Hit rate of the full screen: of about 31,000 sequences, about 1,400 (4.5%) were called active.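 How the source made its calls: active means median seed-adjusted z-score above 1 or below -1; inactive means the rest.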 This is one part of the list.

The assay in a line: Novel Modifiers of Survival Motor Neuron (SMN) Protein: Gene Identification via Genome-wide siRNA Screen.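 Further: luminescence tracks full-length SMN protein made from the SMN2 reporter.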 The note with it: HEK293T SMN2-luciferase reporter, siRNA knockdown, 72 h; actives lie on both sides. An outline of the steps:
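Luciferase signal, proportional to full-length SMN made from an SMN2 cDNA reporter in stable HEK293T cells, was read 72 h after siRNA reverse transfection. Values were expressed as MAD scores after non-targeting-control normalization and log10 conversion; seed analysis flagged off-targets.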
Regarding GCAAGACAGAGAUCACGGATT against KRT13, the median seed-adjusted z-score is inactive: 0.101.
As to CCAUCAUCCAGAGACGAAATT against ANGPTL7, the median seed-adjusted z-score is inactive: 0.
As for ACAUGUACUUCCUGAUUGATT against SLC11A1, the figure is inactive: -0.516; as for CAACAACUCUGACAAAUCATT against ZNF385B, inactive: 0.446; as for CGUAUAAGUUGGUAACAGATT against PCDHGB5, inactive: 0.464.
In the case of CCUCCUUGUUAGUGUCUUUTT against CLEC11A, the median seed-adjusted z-score was active: -1.1.
Regarding GUACAAGGCCUGUAAAGUATT against KLC2, the median seed-adjusted z-score is inactive: 0.0706.
Take ACAAUGAAGUUCUCCCUGATT against PCGF1: the median seed-adjusted z-score was inactive: 0.508.
The result for GGAUUUUGACGACGAGUUUTT against FNBP1 reads inactive: -0.168; that for CGAGAAUGACUAUCUUCAATT against STK32C, inactive: -0.311.
In the case of GCAAACUGGUUCUUUCGGATT against CALCB, the median seed-adjusted z-score is inactive: 0.
In the case of GCAUUAUACGGACCUCGGATT against MMP20, the median seed-adjusted z-score is inactive: 0.0623.
Take GGGAAGAUAUUUGUCAGCATT against PLXNA2: the median seed-adjusted z-score is inactive: 0.308.
As to GCUGAAACUUGUCACAUCATT against TXNDC8, the median seed-adjusted z-score was inactive: -0.281.
Consider CGAGCUGACUUCAACAGGATT against STC1, for which the median seed-adjusted z-score was active: -1.36.
For CCAGCUCCUCUACGCCUUUTT against TRIB3, the median seed-adjusted z-score was inactive: 0.00635.
GUUUCGGACCUAUCUCUGATT against RBM3: the median seed-adjusted z-score is inactive: 0.0539.
Take GGCUGUACUGGGUCGAACATT against F2RL3: the median seed-adjusted z-score is inactive: 0.133.
In the case of GAAGUCACGUCACUACUUATT against ZNF644, the median seed-adjusted z-score was inactive: 0.389.
With GUAUCGACAUCAUUCAAGATT against YME1L1, the median seed-adjusted z-score is inactive: 0.131.
As to CGUCUCCUUCCUUAACGAATT against TRPV3, the median seed-adjusted z-score was inactive: -0.228.
Regarding GAGAGAUGCCCUACACUAATT against FLJ16165, the median seed-adjusted z-score is inactive: -0.404.
As to GACUGUAUCCAAACGAAUUTT against SLITRK2, the median seed-adjusted z-score was inactive: -0.246.
As for AAAGGAGUGUGGAAACUUATT against ADAT1, the median seed-adjusted z-score was inactive: 0.404.
As for UGGUCAUUAUGAUUAGCUATT against RNF149, the figure is inactive: -0.17.
With GAGAGACAAUCUUCAUGCATT against PADI1, the median seed-adjusted z-score was inactive: 0.
On to CUCCACCAUUUACAAAUUUTT against GTF3C5, for which the median seed-adjusted z-score was inactive: 0.493.
For GCAUCUAUGCUGAGACAUUTT against MRPS28, the median seed-adjusted z-score is inactive: -0.022.
As for CACUCAUUACUUCCGGGUATT against BIRC3, the median seed-adjusted z-score was inactive: -0.644.
With GGCAUAUCAAGAUCGGUUATT against IQGAP1, the median seed-adjusted z-score is inactive: -0.615.
Take GCCUUGUAUAAAAACAUAATT against B4GALT5: the median seed-adjusted z-score is inactive: 0.104.
With AAGUACAAGGUCUCCAUAATT against CNTFR, the median seed-adjusted z-score is inactive: 0.
As to AAAUCUUCGAUUUCAUAAATT against ZNF440, the median seed-adjusted z-score is inactive: 0.208.
Turning to GGACGAUCACUGUUGUGCATT against RBM22, the median seed-adjusted z-score is inactive: 0.0259.
In the case of CGGUUCCUUUAUUACCAAATT against TNFRSF21, the median seed-adjusted z-score was inactive: 0.225.
Turning to CGGUUACGAUAAUGCGUUATT against ENPP5, the median seed-adjusted z-score was inactive: -0.0499.
Regarding CCACCAUAAUAGGUACCAATT against HMCN1, the median seed-adjusted z-score was inactive: 0.00218.
Regarding AAGUUCUGCUAUGAGCUAATT against TSP50, the median seed-adjusted z-score is inactive: 0.133.
As for GACUGACAAGAGAGGUUAATT against IPO7, the figure is inactive: -0.143; as for GCUUCAAAACCAAACAAGATT against TXNL4B, inactive: 0.762; as for GCAUUGUCCGUCUUCAUCATT against GLP1R, inactive: 0.
The result for GUGGUAUCGUUUACGGUUATT against SEC63 reads inactive: -0.159; that for GGCCUUACUUUAUUGGAUUTT against PDGFRA, inactive: 0.0399.
As for CCUUAUUGAGGAACUUGAATT against PON3, the figure is inactive: -0.0823; as for CCUUCAGAAUGACCCAUUUTT against SLC43A3, inactive: 0.431; as for UCAUGGACCUGAUCAGAAATT against SLC1A6, inactive: 0.0455.
As to GGGAAGAUCCGAGACCAAATT against ATP2A1, the median seed-adjusted z-score was inactive: -0.0384.
As to AGAGGAGAGUGGAAUUCCATT against ARID3C, the median seed-adjusted z-score is active: -1.32.
The result for GCUCUACCAUGAGGACCUUTT against PARP10 reads inactive: -0.454; that for CUACUACUUUAAUCCCUAATT against FDFT1, inactive: -0.143; that for CGGACUACGAUGGACCCAATT against GNAT1, inactive: -0.188.
GAAUAACAACAAUCUUGAATT against MAP3K7IP3: the median seed-adjusted z-score is inactive: 0.267.
As for CUAUAGGUUUUAUAGCAUUTT against LIPA, the figure is inactive: 0.535; as for GAAUGAUGGUGGGAACUAUTT against BMP2K, inactive: -0.51.
In the case of CGAAUAGUUUUGUUUGACATT against ZMPSTE24, the median seed-adjusted z-score was inactive: -0.633.
For CAAAGCUCAUGGAACAUAATT against ZNF676, the median seed-adjusted z-score was inactive: -0.499.
On to GAGGGAAUCCUGUACAGGATT against FBXO44, for which the median seed-adjusted z-score is inactive: -0.45.
As for GAACUUUGUCAUUACCUAUTT against CTSF, the median seed-adjusted z-score is inactive: 0.161.
Regarding GCCUGUCGAGGAGAACAAATT against CASP14, the median seed-adjusted z-score is inactive: 0.702.
With GCAUUAUCGUCAUCCUUGUTT against ADCYAP1R1, the median seed-adjusted z-score is inactive: 0.404.
Consider GGCAGAUGGGAUUCGAAUATT against ZZEF1, for which the median seed-adjusted z-score was inactive: 0.167.
On to CCAAGGAACUGGAUGCGAATT against EPHA10, for which the median seed-adjusted z-score was inactive: 0.502.
As to GCAAGGUUUAAUGAACAAATT against GTF2E1, the median seed-adjusted z-score was active: 1.76.
As for CGUGGUACCAGACAUCUGATT against CCL17, the figure is inactive: 0.178; as for GGAAAAAGCUCUCAAGAAUTT against GNRHR, inactive: 0.0978.
On to GAUGGAACAUUAAACAUCATT against ALDH6A1, for which the median seed-adjusted z-score was inactive: -0.0908.
The result for ACAACAUCGAGAUCGAGUATT against LINGO1 reads inactive: -0.443; that for CAGCUGUGGGAAUCACUUUTT against CCS, inactive: 0.0581.
